Library screening results

Data taken from ChEMBL document CHEMBL3988442, “University of Dundee, Small-Polar-MMV Screening Library” (2021).

Each number is a percent effect as filed. The controls that fix the scale are not given in the record; negative values are as filed. Compounds were drawn at random from those tested, without regard to their results. A dash means the value is not listed here; it may have been measured.

Mtb growth Cornell: 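Whole-cell assay for inhibitors of Mycobacterium tuberculosis growth, labelled Cornell in the record; the read-out is not stated. The concentration is filed as 10 mM, unlikely as a test dose, so the dose is not known. Higher means stronger inhibition (inferred from two other growth screens of the library). Size under these conditions: about 53,000 compounds, about 900 of them at 50% or above in at least one test.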
Mtb heat-shock: 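Assay on Mycobacterium tuberculosis, filed only as a heat shock assay from Cornell; the read-out is not stated. The concentration is filed as 10 mM, unlikely as a test dose, so the dose is not known. Direction is inferred from retests: higher values go with stronger inhibition. Size under these conditions: about 69,000 compounds, about 930 of them at 50% or above in at least one test.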

Compound	Mtb growth Cornell	Mtb heat-shock
CC(C(=O)N1CCN(Cc2ccncc2)CC1)n1cncn1 (centres unmarked)	18.51	-31.43
Cc1cn(CC(=O)N(C)Cc2cccc3ncccc23)c(=O)[nH]c1=O	-29.53	-26.3
Cc1cc(N2CCOCC2)nc(N(C)CCO)c1C#N	8.016	-1.143
O=C1CCC(=O)N1CCN1CCN(c2cc(F)ccc2F)CC1	18.8	-4.766
OCc1cn(Cc2cccc(F)c2)nn1	-14.23	-7.255
CC(NC(=O)N(C)CCCOc1ccccc1)c1nncn1C (centres unmarked)	-11.64	-16.81
CN(C1CCCC1)C(C)(C)C(=O)NCCS(C)(=O)=O	-2.869	-18.18
O=C(CCc1ccccc1)N1CCC(c2n[nH]c(C3CC3)n2)CC1	-30.58	-3.218
O=C(O)C(F)(F)F.[H][C@@]12CN(C(=O)c3ccccc3)CCO[C@]1([H])CN(c1ncccn1)C2	28.5	5.147
Cn1cc(CC2CCN(C(=O)NCc3cccc(C(N)=O)c3)C2)cn1 (centres unmarked)	-	12.88
CCOc1ccccc1-n1c(CNC)n[nH]c1=O	-4.736	0.2046
CCOc1ncccc1CNS(=O)(=O)N1CCOCC1	20.69	-0.5457
NC(=O)CN1CCC(c2cccc(Oc3ccccc3)n2)CC1	-0.05342	3.511
O=C1NC(C(=O)NCc2cccnc2Oc2ccccc2F)CO1 (centres unmarked)	-26.86	10.14
O=C(O)C(F)(F)F.O=C(O)C(F)(F)F.O=C(O)C(F)(F)F.O=C(O)c1cc2c(nc1-c1ccncc1)CCN(C1CCOC1)CC2 (centres unmarked)	30.39	-7.199
O=C(Cc1ccon1)Nc1cncc(Br)c1O	58.04	9.714
O=C(NCc1ccccc1-n1cccn1)N1CCC(N2CCCC2)C1 (centres unmarked)	4.109	-12.67
Cc1noc(C)c1CC(=O)N1CCCC(Cn2ccnc2C)C1 (centres unmarked)	0.7133	1.111
c1coc(-c2[nH]c3ncccc3c2CN2CCCOCC2)c1	-	6.436
N#Cc1nccnc1NC1CCN(c2ccccc2OC(F)F)C1 (centres unmarked)	39.06	-1.481
[H][C@@]12CN(C(=O)C3CC=CC3)C[C@@]1([H])N(Cc1cccnc1)C(=O)CO2	-13.08	18.22
Cc1c(C(=O)NCCC(=O)N2CCCC2)cccc1-c1ccccn1	-8.984	2.994
CCCN(C(=O)c1csnn1)C1CCCN(Cc2ccccc2)C1 (centres unmarked)	0.5712	-38.1
O=C(N[C@@H]1CNCCC[C@H]1O)c1ccc(OCCN2CCCC2)cc1	-	-18.44
COc1ccc(Cc2nnc(NC(=O)C3CC34CCC4)s2)cc1OC (centres unmarked)	38.31	-7.021
CCCc1nnc(N(C)CC2CCCN(CC)C2)o1 (centres unmarked)	-63.52	-28.73
COCc1noc(-c2cc(Cl)c3c(c2)OCCCO3)n1	1.864	16.45
[H][C@]12CCN(C(=O)Nc3ccccc3C)CC[C@@]1([H])S(=O)(=O)N(CC(C)C)C2	-	-3.287
CCCNC(=O)CN1CCCC1c1nc(Cc2ccc(F)cc2)no1 (centres unmarked)	33.46	-0.2695
COC(=O)NCCCC(=O)NCC1(c2cccc(Cl)c2)CC1	-11.92	-14.21
Cc1ccc(CNC(=O)c2ccc(F)cc2)o1	49.73	38.91
COC(=O)c1ccc(CNC(C)c2ccc(S(C)(=O)=O)cc2)cc1 (centres unmarked)	-	-23.31
COCCNC(=O)CCNc1cc(C)nc(-c2ccncc2)n1	-4.247	-6.377
CN1CC(=O)N(C2CCCNC2)Cc2c(NC3CCC3)ncnc21 (centres unmarked)	-	-20.52
Cc1nc(CNCC2COCc3c(-c4ccoc4)nnn3C2)cs1 (centres unmarked)	13.51	9.487
CC(c1ccncn1)N(C)Cc1cc2cc3c(cc2[nH]c1=O)OCO3 (centres unmarked)	-41.97	31.71
CC(Cn1cccn1)NCc1nc(-c2ccco2)no1 (centres unmarked)	-17.76	-3.967
O=C(O)C(F)(F)F.[H][C@]12CCN(Cc3c(C)noc3C)[C@@]1([H])CC[C@@H](COCC(C)C)O2	18.23	-37.59
CCS(=O)(=O)c1ncc(CN(C)Cc2ccc(C)o2)n1CCOC	2.517	-20.65
O=C(c1ccc(F)cc1)N(CCCO)S(=O)(=O)c1cccs1	12.72	-14.96
COc1cc(C(C)=O)ccc1OCC(=O)N(CC(C)C#N)C1CC1 (centres unmarked)	8.551	14.88
CN(CC(=O)N1CCC(N(C)c2ccccc2)CC1)c1cnccn1	-	-27.01
CN(C)c1ncccc1CNc1cc(N2CCCC2CO)ncn1 (centres unmarked)	-	-14.82
CCCc1ccc2oc(C(=O)N3CCC(O)CC3)c(C)c2c1	-12.76	-7.629
[H][C@]12CC[C@]([H])(CN(C(C)=O)C1)N(S(=O)(=O)c1ccc(C#N)cc1Cl)C2	18.05	12.47
CN(C)CCNC(=O)c1cc2n(n1)CCN(C(=O)CC(C)(C)C)C2	-1.149	2.658
CC(C)OC(=O)c1ccc(Cl)c(NC(=O)NCCN2CCOCC2)c1	-17.74	16.58
CN1CC2(CCCN(Cc3cccc(CCN)c3)C2)OC1=O (centres unmarked)	4.729	-30.63
CO[C@@H]1CCN(S(=O)(=O)c2cccs2)[C@H]1Cc1cccnc1.O=C(O)C(F)(F)F	20.55	-6.464
COc1c(C2CCCN2CC(=O)N(C)Cc2ccco2)c(C)nn1C (centres unmarked)	13.15	-3.585
Cc1ncsc1CCN(C)C(=O)CN1C(=O)OC[C@@H]1c1ccccc1	10.44	-9.052
COc1cccc(N2CCN(C(=O)c3ccc(=O)n(C)c3)CC2)c1	-	24.48

Some entries from above, unchanged:

| Compound | Mtb growth Cornell | Mtb heat-shock |
|---|---|---|
| `N#Cc1nccnc1NC1CCN(c2ccccc2OC(F)F)C1` (centres unmarked) | 39.06 | -1.481 |
| `CN(C)CCNC(=O)c1cc2n(n1)CCN(C(=O)CC(C)(C)C)C2` | -1.149 | 2.658 |
| `CCCc1nnc(N(C)CC2CCCN(CC)C2)o1` (centres unmarked) | -63.52 | -28.73 |
| `O=C(O)C(F)(F)F.[H][C@@]12CN(C(=O)c3ccccc3)CCO[C@]1([H])CN(c1ncccn1)C2` | 28.5 | 5.147 |
| `CC(c1ccncn1)N(C)Cc1cc2cc3c(cc2[nH]c1=O)OCO3` (centres unmarked) | -41.97 | 31.71 |
| `NC(=O)CN1CCC(c2cccc(Oc3ccccc3)n2)CC1` | -0.05342 | 3.511 |